# Experimental data taken from PubChem BioAssay AID504847 (National Center for Advancing Translational Sciences (NCATS), 2011).
# Protein sequences, listed by entry. Tags and fused reporters are not part of them. Lines headed by an entry give the natural chain unless they say otherwise; changes in a name come on top.
# UniProt P11473: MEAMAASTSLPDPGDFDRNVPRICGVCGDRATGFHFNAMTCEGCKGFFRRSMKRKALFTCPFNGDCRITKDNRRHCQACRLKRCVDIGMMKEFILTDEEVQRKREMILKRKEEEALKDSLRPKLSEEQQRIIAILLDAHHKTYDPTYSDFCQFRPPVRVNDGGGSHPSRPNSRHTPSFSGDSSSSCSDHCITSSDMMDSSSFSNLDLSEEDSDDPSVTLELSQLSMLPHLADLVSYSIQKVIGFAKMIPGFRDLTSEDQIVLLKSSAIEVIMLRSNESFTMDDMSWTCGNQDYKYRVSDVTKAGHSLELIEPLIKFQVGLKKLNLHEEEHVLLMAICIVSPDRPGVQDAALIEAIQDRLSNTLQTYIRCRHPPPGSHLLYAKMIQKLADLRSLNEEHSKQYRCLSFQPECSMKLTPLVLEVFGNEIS
# “And” between values parts separate entries of the source, which are not always exact repeats. Equal entries are not always repeated. About 3,700 (0.93%) of roughly 400,000 compounds were called active. The inconclusive results got no clear call from the source; some entries with a clear call stand among them for comparison. The call rests on the fitted dose curve; in most records, active means well fitted inhibition curve with a large enough effect; inconclusive means small, poorly fitted or top-dose-only effect, or another doubt; inactive means no such curve, though single readings can be large or run the other way. Potencies beside an inconclusive call are fits to weak or partial responses and may not hold up.
# Biological target: Vitamin D3 receptor (Homo sapiens) (UniProt P11473)
# Experiment: Inhibitors of the vitamin D receptor (VDR): qHTS
# Conditions: VDR-SRC2-3 peptide fluorescence polarization, 2 h; max response, negative = inhibition: stronger effect = lower value
# Outline: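 Inhibition of the VDR/SRC2-3 peptide interaction is quantified by fluorescence polarization. Compounds (23 nl, pintool) incubate with the reagents for 2 hours at ambient room temperature.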
# On the % scale 0 is the no-effect control and ±100 the full control effect; potency means the concentration at half of the fitted maximal effect.
SMILES,Potency,"max response, negative = inhibition"
Cc1cc(C)n2nc(C(=O)Nc3ccc4c(c3)CCC4)nc2n1,"inconclusive: 79.4 µM [inhibitor, single point]",
O=C1ON=C(c2ccccc2)/C1=C/c1ccco1,"inconclusive: 50.1 µM [inhibitor, partial curve]",
Cc1cc(NC(=O)CCOc2ccc(F)cc2)no1,"inconclusive: 100 µM [inhibitor, single point]",
O=C(CCc1nnc(-c2ccc3c(c2)OCO3)o1)NCCc1ccccc1F,"inconclusive: 39.8 µM [inhibitor, single point]",
Cc1cccn2c(=O)c(C=O)c(Cl)nc12,"inconclusive: 79.4 µM [inhibitor, single point]",
Cc1ccccc1-c1nc(NCc2cccnc2)c2ccccc2n1,"inconclusive: 79.4 µM [inhibitor, single point]",
Cc1cccc(NNC(N)=S)c1C,"inconclusive: 39.8 µM [inhibitor, single point]",
COc1ccc(/C=C/C(=O)c2ccc(C)c([N+](=O)[O-])c2)cc1O,active: 35.5 µM,
O=C1CC(c2ccc(Cl)cc2)Oc2ccc(Cl)cc21 (stereo not given),"inconclusive: 39.8 µM [inhibitor, partial curve]",
O=C(NNc1ccccc1)c1ccccc1,"inconclusive: 89.1 µM [inhibitor, single point]",
Cc1ccc(NC(=S)N/N=C2\CC3CC=CC23)c(C)c1 (stereo not given),"inconclusive: 100 µM [inhibitor, partial curve, poor fit]",
COc1ccc(C)cc1NC(=O)CCCNC(=O)Cn1cnc2sc(C)c(C)c2c1=O,"inconclusive: 89.1 µM [inhibitor, single point]",
O=C(Cn1cnc2ccccc21)Nc1ccc2c(c1)OCCCO2,,inactive: -1.56%
COc1ccccc1-c1cc(C(F)(F)F)nc(S(=O)(=O)CCCC(=O)Nc2cc(OC)c(OC)c(OC)c2)n1,"inconclusive: 56.2 µM [inhibitor, partial curve, poor fit]",
CCOCCCn1c(SCC(=O)Nc2cc(C(C)(C)C)nn2-c2ccccc2)nc2ccccc2c1=O,"inconclusive: 50.1 µM [inhibitor, partial curve, poor fit]",
CCOC(=O)C(Sc1nnc2c3ccccc3n(CC)c2n1)C(=O)OCC,"inconclusive: 20 µM [inhibitor, full curve, poor fit]",
COc1cc(/C=C2\S/C(=N/S(=O)(=O)c3ccccc3)NC2=O)c([N+](=O)[O-])cc1OC,"inconclusive: 56.2 µM [inhibitor, partial curve, poor fit]",
Cc1cc([N+](=O)[O-])ccc1P(=O)(O)c1ccc([N+](=O)[O-])cc1C,"inconclusive: 89.1 µM [inhibitor, single point]",
CCS(=O)(=O)c1ncc(Cl)c(C(=O)N2CCN(c3cccc(Cl)c3)CC2)n1,active: 8.91 µM,
[O-][n+]1ccccc1SSc1cccc[n+]1[O-],active: 5.62 µM,
O=C1CSC(=S)N1/N=C/c1ccc2c(c1)OCCO2,,inactive: -20.1%
Cc1ccc(CNS(=O)(=O)c2cc(C(=O)Nc3cccc(C(F)(F)F)c3)ccc2F)cc1,,inactive: 8.19%

SMILES,Potency,"max response, negative = inhibition"
COc1ccc(CNCCC(c2ccccc2)c2ccc(OC(C)C)cc2)cc1OC (stereo not given),"inconclusive: 79.4 µM [inhibitor, single point]",
CC1(C)OCC([C@H](O)C2=CCCCC2=O)CO1,,inactive: 12.2%
O=C(O)c1ccccc1-c1c2cc(Br)c(=O)c(Br)c-2oc2c(Br)c(O)c(Br)cc12,active: 28.2 µM and active: 35.5 µM,
COc1ccccc1/C=C/C(=O)c1ccc(Cl)cc1,"inconclusive: 56.2 µM [inhibitor, partial curve, poor fit]",
CCN(CC)C(=O)c1sc(NC(=O)C(C)Sc2nc(-c3ccccc3)cc(C(F)(F)F)n2)c(C(=O)OC)c1C (stereo not given),active: 35.5 µM,
Cc1oc(-c2cccc3ccccc23)nc1CN1CCN(c2ncnc3ccccc23)CC1,,inactive: -5.99%
CCOC(=O)c1c(-c2ccccc2)csc1NC(=O)c1nc(S(=O)(=O)CC)ncc1Cl,active: 17.8 µM,
Cc1cccc(-c2c3c(=O)n(C)c(=O)n(C)c3cn2-c2cc(N)c(Cl)cc2Cl)c1,,inactive: 23.3%
CC(=O)NC1C(OC2OC(CC(O)C3OC([N+]4=CCC(=O)NC4=O)C(O)C3O)C(O)C(O)C2NC(=O)/C=C/CCCCCCCCC(C)C)OC(CO)C(O)C1O (stereo not given),"inconclusive: 35.5 µM [inhibitor, partial curve, poor fit]",
O=C1OC(/C=C/c2ccccc2)=NC/1=C/C=C/c1ccccc1,"inconclusive: 8.91 µM [inhibitor, full curve, poor fit]",
O=c1[nH]c2ccc(Cl)cc2c(-c2ccccc2)c1CN1CCOCC1,"inconclusive: 56.2 µM [inhibitor, partial curve, poor fit]",
Nc1cc(=O)nc(SCC(=O)Nc2cccc(Cl)c2)n1CCc1ccccc1,,inactive: 4.66%
Clc1ccc(-c2csc(NNC3=NCCCCC3)n2)cc1,active: 50.1 µM,
O=C(NC12CC3CC(CC(C3)C1)C2)N1CCN(C2CCCCC2)CC1,"inconclusive: 100 µM [inhibitor, single point]",
CSc1nsc(/C=C/Nc2ccc(F)cc2)c1C#N,"inconclusive: 79.4 µM [inhibitor, single point]",
O=C(Nc1ccc(OC(F)F)cc1)c1ncc(Cl)c(Cl)c1Cl,,inactive: -12.1%
O=C(Nc1ccc(-c2nc3ncccc3o2)cc1)c1ccco1,"inconclusive: 31.6 µM [inhibitor, partial curve, poor fit]",
CCCCCC1(C)NC(=S)N(c2ccccc2)N1 (stereo not given),"inconclusive: 89.1 µM [inhibitor, single point]",
C=CC[C@]12CC=CC(=O)[C@@]1(O)O[C@H](c1ccc(OC)c(OC)c1)[C@H]2C,"inconclusive: 44.7 µM [inhibitor, partial curve, poor fit]",
COc1ccc(N2CSC3=C(C#N)C(c4cc(OC)ccc4OC)CC(=O)N3C2)c(OC)c1 (stereo not given),active: 15.8 µM,
CCOC(=O)c1c(C)oc2c1c1c(c3ccccc32)OCN(Cc2cccnc2)C1,"inconclusive: 44.7 µM [inhibitor, partial curve, poor fit]",
CCOC(=O)c1cn(CC)c2cc3c(cc2c1=O)OCO3,"inconclusive: 100 µM [inhibitor, single point]",

# An excerpt of these results, bar-delimited:
SMILES | Potency | max response, negative = inhibition
CC1(C)OCC([C@H](O)C2=CCCCC2=O)CO1 |  | inactive: 12.2%
O=C(O)c1ccccc1-c1c2cc(Br)c(=O)c(Br)c-2oc2c(Br)c(O)c(Br)cc12 | active: 28.2 µM and active: 35.5 µM | 

# Remaining list, next part

SMILES,Potency,"max response, negative = inhibition"
O=C(c1ccccc1)c1cc(Cl)ccc1N1C(=O)C=CC1=O,active: 25.1 µM,
CC(=O)OCC1=C(C(=O)OC(C)(C)C)N2C(=O)[C@@H](NC(=O)Cc3ccccc3)[C@H]2SC1,"inconclusive: 70.8 µM [inhibitor, partial curve]",
CC(=O)/C=C/c1ccccc1Oc1c(F)c(F)nc(F)c1F,"inconclusive: 56.2 µM [inhibitor, partial curve, poor fit]",
Cc1ccccc1-c1cc(Nc2ccccc2)ncn1,"inconclusive: 89.1 µM [inhibitor, single point]",
COc1ccc(-c2cc(N)n(S(=O)(=O)c3c(F)c(F)c(F)c(F)c3F)n2)cc1OC,"inconclusive: 15.8 µM [inhibitor, full curve, poor fit]",
O=C(O)C1CSC(c2coc3ccccc3c2=O)N1 (stereo not given),"inconclusive: 56.2 µM [inhibitor, partial curve, poor fit]",
CC(=O)c1ccc(NC(=O)CCCc2nc(-c3cccc(C)c3)no2)cc1,,inactive: 12.8%
O=C(OC(C(=O)Nc1ccc(Cl)cc1C(F)(F)F)c1ccccc1)c1c(Cl)cccc1Cl (stereo not given),"inconclusive: 31.6 µM [inhibitor, full curve]",
O=c1ccc(N=Nc2ccccc2)ccc1O,,inactive: -3.85%
Cc1c(NC(=O)CSc2n[nH]c(=O)n2-c2ccccc2)c(=O)n(-c2ccccc2)n1C,"inconclusive: 79.4 µM [inhibitor, single point]",
CCN(c1ccc(NC(=O)COC(=O)CCC(=O)c2ccc(F)cc2)cc1)C(C)C,"inconclusive: 89.1 µM [inhibitor, partial curve, poor fit]",
O=c1[nH]sc2ccccc12,"inconclusive: 3.16 µM [inhibitor, full curve, poor fit]",
Cc1ccc2nc(NCc3ccccc3)c(C=NCc3ccccc3)c(=O)n2c1,,inactive: 6.16%
CC(C)(S)[C@@H](N)C(=O)O,"inconclusive: 44.7 µM [inhibitor, partial curve]",
COc1ccc(O)c(/C=C2/SC(=S)N(Cc3ccccc3)C2=O)c1,"inconclusive: 100 µM [inhibitor, single point]",
CC(=O)c1ccc(NS(=O)(=O)c2ccc(N)cc2)cc1,"inconclusive: 44.7 µM [inhibitor, partial curve]",
CSCC[C@H](N)C(=O)N[C@@H](CCCN=C(N)N)C(=O)N[C@@H](Cc1ccccc1)C(=O)N[C@@H](Cc1ccccc1)C(=O)N[C@H](C(=O)O)C(C)C,,inactive: -3.78%
COc1ccc(-c2nc3ncccn3c2Nc2ccccc2)cc1,"inconclusive: 89.1 µM [inhibitor, partial curve, poor fit]",
COc1ccc(/C=C/C(=O)c2cc(F)ccc2OC(=O)c2ccccc2)cc1OC,active: 39.8 µM,
Cc1cc(N2CCN(C)CC2)nc2ccc(NC(=O)c3ccc4c(c3)OCO4)cc12,,inactive: -6.71%
CC(=O)n1cc([C@@H]2C=C(C(=O)NCc3ccccc3)O[C@H](OCCCCO)C2)c2ccccc21,"inconclusive: 7.94 µM [inhibitor, partial curve, poor fit]",
